Measured values from patent US20100227805A1.
These are yes or no findings as the source states them, for the method shown. Some entries that bind do so weakly or less than the wild type.

Protein sequences, listed by entry. Tags and fused reporters are not part of them. Residues count along the entry.
UniProt P10147, residues 27-92: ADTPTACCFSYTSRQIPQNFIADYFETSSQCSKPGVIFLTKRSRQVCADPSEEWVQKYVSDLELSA

Target: human MIP-1α (CCL3) (human) (UniProt P10147)
Experiment: direct ELISA, chemokine coated at 10 ng/well, fusion at 1 µg/well

- binding: binds
B1: mCCR5(EC2)-IgG (Fc fusion)
chain: DAAQPARRARRTKLRSQKEGFHYTCSPHFPHTQYHFWKSFQTLKLEVPRDCGCKPCICTVPEVSSVFIFPPKPKDVLTITLTPKVTCVVVDISKDDPEVQFSWFVDDVEVHTAQTQPREEQFNSTFRSVSELPIMHQDCLNGKEFKCRVNSAAFPAPIEKTISKTKGRPKAPQVYTIPPPKEQMAKDKVSLTCMITDFFPEDITVEWQWNGQPAENYKNTQPIMDTDGSYFVYSKLNVQKSNWEAGNTFTCSVLHEGLHNHHTEKSLSHSPGKGPEQKLISEEDLNSAVDHHHHHH
